Experimental data as given in paper PMC5998080, “Structural and functional analysis of mRNA export regulation by the nuclear pore complex” (Nature Communications, 2018).

Target: T1, DDX19 (wild type) (Homo sapiens) (UniProt Q9UMR2)
T1 sequence (looked up, limits assumed): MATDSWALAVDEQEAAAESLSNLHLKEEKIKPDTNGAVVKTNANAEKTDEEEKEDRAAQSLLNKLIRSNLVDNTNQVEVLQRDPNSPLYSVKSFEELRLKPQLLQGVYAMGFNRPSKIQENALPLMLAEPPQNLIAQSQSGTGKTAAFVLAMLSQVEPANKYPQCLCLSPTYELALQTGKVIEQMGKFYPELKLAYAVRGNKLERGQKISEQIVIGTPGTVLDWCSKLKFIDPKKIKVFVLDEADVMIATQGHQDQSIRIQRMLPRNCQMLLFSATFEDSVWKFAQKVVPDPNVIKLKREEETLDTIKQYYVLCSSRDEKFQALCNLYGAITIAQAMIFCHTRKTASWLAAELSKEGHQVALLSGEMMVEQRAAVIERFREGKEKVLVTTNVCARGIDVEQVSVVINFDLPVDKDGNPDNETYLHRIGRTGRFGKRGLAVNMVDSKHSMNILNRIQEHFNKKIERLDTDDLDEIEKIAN
Test: EMSA
Conditions: 1 mM AMP-PNP, 2 mM MgCl2, 20 mM TRIS pH 8.0, 100 mM NaCl, 2 mM MgCl2, 1 mM DTT, 10% glycerol, 25 ng RNA in 10 ul, 20 min on ice, 1.4% native agarose gel, 0.25x TBE, room temperature, recombinant protein, protein details: His6 removed by PreScission protease, label: none (SYBR gold stain)

“GUUUUUUUUUUUUUUUUUUUUCUCGAUCCGUAGUGAUCUACUGAGCAUCUCCC [53-nt ssRNA probe]”: binds more weakly (+ 2 uM Nup214NTD: binding inhibited); binds (DDX19 1 uM alone).

For at least one entry, the source does not settle the construct or the ends of the probe. Weaker means in comparison with the reference protein, sequence or condition of that experiment. Where a protein sequence is shown, tags need not be part of it. At least one verdict rests on a figure or table, not on a statement of the authors.
